PubChem BioAssay AID652272 – Drosophila RNAi Screening Center | 2013

Test: 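Finding fly genes that regulate Hedgehog signal transduction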 (primary screen)
Cells: Drosophila clone 8 (Cl8) cells
Reagent: long dsRNA against Drosophila genes
Read-out: 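Firefly light from a Hedgehog-responsive ptc promoter reporter and Renilla reference light, both read on a plate reader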
Scale: firefly Hh reporter signal: higher = more ptc reporter light; Renilla reference signal: higher = more Renilla control light
Call rule: 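Hit when the z-score averaged over two replicates is under -2 or over +3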
Meaning of the calls: active = hit: reporter lowered or raised; inactive = not a hit
The screen tested about 21,000 reagents; shown is an unselected part of those with a known target gene and a result. In the full data, 503 (2.4%) are marked active. 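Raw plate light values, not normalised; calls rest on replicate z-scores that were not deposited; hits include reporter decreases as well as increases.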 A plus sign joins genes that one reagent is predicted to hit. Not stated in the record: the amount of reagent, the time to read-out.

Against tin [SID104196875], the values are firefly Hh reporter signal, replicate 1 = 6.93e5; firefly Hh reporter signal, replicate 2 = 2.25e5; Renilla reference signal, replicate 1 = 32929; Renilla reference signal, replicate 2 = 5797; inactive.
With knock-down of sisA [SID104200166], the screen gave firefly Hh reporter signal, replicate 1 = 67693; firefly Hh reporter signal, replicate 2 = 1.36e5; Renilla reference signal, replicate 1 = 1905; Renilla reference signal, replicate 2 = 5697; inactive.
After knock-down of CIAPIN1 [SID104183351], the record shows firefly Hh reporter signal, replicate 1 = 75808; firefly Hh reporter signal, replicate 2 = 64189; Renilla reference signal, replicate 1 = 3812; Renilla reference signal, replicate 2 = 3651; inactive.
Pitslre [SID104191666] gave firefly Hh reporter signal, replicate 1 = 56512; firefly Hh reporter signal, replicate 2 = 42667; Renilla reference signal, replicate 1 = 3764; Renilla reference signal, replicate 2 = 2755; active.
With knock-down of CG33635 [SID104179798], the screen gave firefly Hh reporter signal, replicate 1 = 5.30e5; firefly Hh reporter signal, replicate 2 = 2.59e5; Renilla reference signal, replicate 1 = 27253; Renilla reference signal, replicate 2 = 9632; inactive.
Silencing of CG9525 [SID104183041] gave: firefly Hh reporter signal, replicate 1 = 94395; firefly Hh reporter signal, replicate 2 = 44960; Renilla reference signal, replicate 1 = 2535; Renilla reference signal, replicate 2 = 5203; inactive.
Depletion of CG9312 [SID104196263] gave: firefly Hh reporter signal, replicate 1 = 1.70e5; firefly Hh reporter signal, replicate 2 = 1.17e5; Renilla reference signal, replicate 1 = 5829; Renilla reference signal, replicate 2 = 4294; inactive.
After knock-down of CG9377 [SID104183009] the results were firefly Hh reporter signal, replicate 1 = 65109; firefly Hh reporter signal, replicate 2 = 46372; Renilla reference signal, replicate 1 = 2745; Renilla reference signal, replicate 2 = 2162; inactive.
After knock-down of CG11413 + CG4622 [SID104183901], the record shows firefly Hh reporter signal, replicate 1 = 1.00e5; firefly Hh reporter signal, replicate 2 = 1.11e5; Renilla reference signal, replicate 1 = 1850; Renilla reference signal, replicate 2 = 7808; inactive.
After knock-down of CG8419 [SID104182879], the screen gave firefly Hh reporter signal, replicate 1 = 1.17e5; firefly Hh reporter signal, replicate 2 = 68410; Renilla reference signal, replicate 1 = 3394; Renilla reference signal, replicate 2 = 6468; inactive.
Silencing of Elba1 [SID104180068] resulted in: firefly Hh reporter signal, replicate 1 = 89264; firefly Hh reporter signal, replicate 2 = 44835; Renilla reference signal, replicate 1 = 2475; Renilla reference signal, replicate 2 = 4304; inactive.
CG33124 [SID104180090] showed firefly Hh reporter signal, replicate 1 = 69601; firefly Hh reporter signal, replicate 2 = 94736; Renilla reference signal, replicate 1 = 1512; Renilla reference signal, replicate 2 = 1796; inactive.

Reprinted from the listing for reference:
sisA [SID104200166] | firefly Hh reporter signal, replicate 1 = 67693; firefly Hh reporter signal, replicate 2 = 1.36e5; Renilla reference signal, replicate 1 = 1905; Renilla reference signal, replicate 2 = 5697; Outcome = inactive
CIAPIN1 [SID104183351] | firefly Hh reporter signal, replicate 1 = 75808; firefly Hh reporter signal, replicate 2 = 64189; Renilla reference signal, replicate 1 = 3812; Renilla reference signal, replicate 2 = 3651; Outcome = inactive
